Measurements from the supplement of paper PMC12823440, “Inhibitors supercharge kinase turnover through native proteolytic circuits” (Nature, 2025).
Structures can show the parent of a compound that is named as a salt. Some of the results follow. Hit calls seldom repeat between salt and free forms of one compound.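 Kinases were expressed as nanoluciferase fusions in K562 cells and luminescence was read every 4 h between 2 and 18 h as percent of control, DMSO set to 100% and a positive control to 0%. A time point counts as decreased when the signal drops significantly (2 sigma). The hit call is the authors' own, does not follow from the count of time points alone, and its rule is not shown.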

By UniProt entry, the sequences of proteins in these tests, tags left out. Where a name states a change or a piece, a line headed by the entry shows the natural chain unless it says otherwise.
UniProt Q13546: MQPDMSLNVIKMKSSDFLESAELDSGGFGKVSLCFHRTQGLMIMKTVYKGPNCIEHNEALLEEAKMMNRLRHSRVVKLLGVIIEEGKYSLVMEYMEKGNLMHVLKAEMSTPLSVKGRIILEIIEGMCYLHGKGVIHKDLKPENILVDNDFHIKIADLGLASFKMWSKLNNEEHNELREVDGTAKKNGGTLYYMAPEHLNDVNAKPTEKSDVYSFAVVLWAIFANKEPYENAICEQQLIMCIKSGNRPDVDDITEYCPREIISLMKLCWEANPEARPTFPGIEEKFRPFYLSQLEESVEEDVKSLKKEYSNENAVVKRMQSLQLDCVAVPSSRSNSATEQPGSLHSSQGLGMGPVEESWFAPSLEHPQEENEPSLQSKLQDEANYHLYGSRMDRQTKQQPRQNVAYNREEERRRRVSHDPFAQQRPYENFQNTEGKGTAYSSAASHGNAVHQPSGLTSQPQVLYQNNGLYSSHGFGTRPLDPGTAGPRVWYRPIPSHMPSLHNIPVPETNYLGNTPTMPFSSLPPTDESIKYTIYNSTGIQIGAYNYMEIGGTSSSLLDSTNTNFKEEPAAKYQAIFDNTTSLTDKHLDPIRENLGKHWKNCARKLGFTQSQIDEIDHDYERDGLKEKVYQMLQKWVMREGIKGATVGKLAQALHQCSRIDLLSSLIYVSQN

target: RIPK1 (UniProt Q13546); test: number of time points (of 5) at which kinase-Nluc abundance scored as decreased, DMSO-normalised (count); higher = more persistent destabilization; conditions: K562; 2-18 h

Row | SMILES | number of time points
1 | COc1ccc(Cn2cc(C(=O)N=Nc3c(O)[nH]c4c(C)cccc34)nn2)cc1 [MARK4 inhibitor 1] (10 µM) | 0
2 | COc1cc([N+](=O)[O-])ccc1S(=O)(=O)N1C[C@@H](CN2CCN(c3ccccn3)CC2)[C@H](c2cccc(F)c2)C1 (relative stereo) (10 µM) | 0
3 | Cc1cc(Nc2nc(N[C@@H](C)c3ccc(F)cc3)c(C#N)cc2F)n[nH]1 (10 µM) | 0
4 | Cc1ccc(S(=O)(=O)/C=C/C#N)cc1 (10 µM) | 0
5 | Cc1c(CN2CCN(S(C)(=O)=O)CC2)sc2c(N3CCOCC3)nc(-c3cnc(N)nc3)nc12 (2.5 µM) | 0
6 | COc1ccc(-c2ccc3c(N4CCOC[C@@H]4C)nc(N4CCOC[C@@H]4C)nc3n2)cc1CO (2.5 µM) | 4
7 | CCN(CC)S(=O)(=O)c1ccc(OC)c(N2CCN(C(=O)c3ccc(F)cc3C(F)(F)F)CC2)c1 (10 µM) | 0
8 | CC1CN(C(=O)Nc2ccc(Cl)c(Cl)c2)C(=Nc2ccc(F)cc2)S1 (configuration not stated) (10 µM) | 0
9 | COCCO[C@@H]1[C@H](O)[C@@H](CO)O[C@H]1n1cnc2c(=O)[nH]c(N)nc21 [2′-O-(2-Methoxyethyl)guanosine] (10 µM) | 0
10 | COc1cc(F)c(F)c(Nc2ccc(I)cc2F)c1NS(=O)(=O)C1(C[C@H](O)CO)CC1 [Refametinib] (10 µM) | 0
11 | CC(C)=CC[C@H](O)C1=CC(=O)c2c(O)ccc(O)c2C1=O [(-)-Alkannin] (2.5 µM) | 0
12 | C[C@@]1(O)CCC[C@H]1n1c(=O)c(C(F)F)cc2cnc(NC3CCN(S(C)(=O)=O)CC3)nc21 (2.5 µM) | 3
13 | CS(=O)(=O)c1ccc(-c2noc(C(F)(F)F)c2-c2ccccc2)cc1 (10 µM) | 0
14 | COc1ccc2[nH]cc(/C=C3\C(=O)Nc4ccc(NC(=O)CCN5CCCCC5)cc43)c2c1 (2.5 µM) | 0
15 | O=C(Nc1ccc(F)cc1F)[C@H](NC(=S)Nc1cc(C(F)(F)F)cc(C(F)(F)F)c1)c1ccccc1 (2.5 µM) | 0
16 | CC(C)CN[C@H]1CS(=O)(=O)C[C@@H]1S(=O)(=O)c1ccc(Cl)cc1 (10 µM) | 0

Row | SMILES | number of time points
17 | COc1ccc(C2CC(c3ccccc3)=NN2c2ccc(S(N)(=O)=O)cc2)cc1 (configuration not stated) (10 µM) | 0
18 | CC/C=C\C/C=C\C/C=C\CCCCCCCC(=O)O [α-Linolenic acid] (10 µM) | 0
19 | O=C(Nc1nc2ccccc2[nH]1)c1cccc(-n2cccc2)c1 (10 µM) | 0
20 | COc1ncc(-c2nc(N3CCOCC3)nc3c(CN4CCC(C(C)(C)O)CC4)cc(F)cc23)cc1NS(C)(=O)=O [Linperlisib] (10 µM) | 0
21 | COc1ccc([C@H]2c3[nH]c4ccc(Cl)cc4c3CCN2C(=O)Oc2ccc(Cl)cc2)cc1 (2.5 µM) | 0
22 | COc1c(NC(=O)C(=O)c2ccc(OCCN3CCOCC3)c3ccccc23)cc(C(C)(C)C)cc1NS(C)(=O)=O (2.5 µM) | 0
23 | COc1ccc([C@@H]2CC(=O)c3c(O)cc(O)cc3O2)cc1O [Hesperetin] (10 µM) | 0
24 | N#Cc1cccc(-c2c[nH]c3ncnc(N4CCOCC4)c23)c1 (10 µM) | 0
25 | C/C(=C1/C(=O)Nc2ccc(NC(N)=O)cc21)c1ccc[nH]1 (10 µM) | 0
26 | Nc1ncnc2c1c(-c1ccc(Oc3ccccc3)cc1)nn2C1CCNCC1 [N-piperidine Ibrutinib (hydrochloride)] (10 µM) | 0
27 | N#Cc1ccc2ncnc(NC3CCC(N4CCOCC4)CC3)c2c1 (configuration not stated) (10 µM) | 0
28 | CC(=O)c1c(C)c2cnc(Nc3ccc(N4CCN(CCCCNC(=O)COc5cccc6c5C(=O)N(C5CCC(=O)NC5=O)C6=O)CC4)cn3)nc2n(C2CCCC2)c1=O (configuration not stated) (10 µM) | 0
29 | CC(C)=CC(=O)CCC(=O)N1CCN(Cc2cc3nc(-c4cccc5[nH]ncc45)nc(N4CCOCC4)c3s2)CC1 (10 µM) | 0
30 | Cc1ccc(S(=O)(=O)Nc2ccccc2C=Nc2ccccc2NS(=O)(=O)c2ccc(C)cc2)cc1 (10 µM) | 0
31 | NCCN1CCN(C/C=C/C(=O)N2CCC[C@@H](n3nc(-c4ccc(Oc5ccccc5)cc4)c4c(N)ncnc43)C2)CC1 [Ibrutinib-MPEA] (10 µM) | 0
32 | O=C(CNC(=O)c1ccc(-c2ccccc2)cc1)NC1CCCc2ccccc21 (configuration not stated) [TAO Kinase inhibitor 1] (10 µM) | 0

Three structures from above, arranged by length of the SMILES, largest number first:
Row | SMILES | number of time points
28 | CC(=O)c1c(C)c2cnc(Nc3ccc(N4CCN(CCCCNC(=O)COc5cccc6c5C(=O)N(C5CCC(=O)NC5=O)C6=O)CC4)cn3)nc2n(C2CCCC2)c1=O (configuration not stated) (10 µM) | 0
23 | COc1ccc([C@@H]2CC(=O)c3c(O)cc(O)cc3O2)cc1O [Hesperetin] (10 µM) | 0
18 | CC/C=C\C/C=C\C/C=C\CCCCCCCC(=O)O [α-Linolenic acid] (10 µM) | 0
